Results are given in words; binding and its absence hold for the method and conditions named. In cells and extracts the contact can be indirect. Here binding means that the protein was enriched with, or labelled near, the bait; the list need not be complete.
B1: LRR-like receptor At3g24480 (receptor, UniProt Q9LHF1 26-494)
chain: LSISSNAPLSDTEVRFIQRRQLLYYRDEFGDRGENVTVDPSLIFENPRLRSAYIALQAWKQAILSDPNNITVNWIGSNVCNYTGVFCSKALDNRKIRTVAGIDLNHADIAGYLPEELGLLTDLALFHVNSNRFCGTVPHKFKQLKLLFELDLSNNRFAGKFPTVVLHLPSLKFLDLRFNEFEGTVPKELFSKNLDAIFINHNRFRFELPENFGDSPVSVIVLANNHFHGCIPTSLVEMKNLNEIIFMNNGLNSCLPADIGRLKNVTVFDVSFNELVGPLPESVGGMVEVEQLNVAHNLLSGKIPASICQLPKLENFTYSYNFFTGEAPVCLRLSEFDDRRNCLPGRPAQRSSRQCSAFLSRPSVDCGSFGCGRSVVKPSPPIVALPPPPPPSPPLPPPVYSPPPSPPVFSPPPSPPVYSPPPPPSIHYSSPPPPPVHHSSPPPPSPEFEGPLPPVIGVSYASPPPPPFY
B2: LRR-like receptor At4g13340 (receptor, UniProt Q9T0K5 21-760)
chain: LSISSDGGVLSDNEVRHIQRRQLLEFAERSVKITVDPSLNFENPRLRNAYIALQAWKQAILSDPNNFTSNWIGSNVCNYTGVFCSPALDNRKIRTVAGIDLNHADIAGYLPEELGLLSDLALFHVNSNRFCGTVPHRFNRLKLLFELDLSNNRFAGKFPTVVLQLPSLKFLDLRFNEFEGTVPKELFSKDLDAIFINHNRFRFELPENFGDSPVSVIVLANNRFHGCVPSSLVEMKNLNEIIFMNNGLNSCLPSDIGRLKNVTVFDVSFNELVGPLPESVGEMVSVEQLNVAHNMLSGKIPASICQLPKLENFTYSYNFFTGEAPVCLRLPEFDDRRNCLPGRPAQRSPGQCKAFLSRPPVNCGSFSCGRSVSPRPPVVTPLPPPSLPSPPPPAPIFSTPPTLTSPPPPSPPPPVYSPPPPPPPPPPVYSPPPPPPPPPPPPVYSPPPPPPPPPPPPPVYSPPPPSPPPPPPPVYSPPPPPPPPPPPPVYSPPPPPVYSSPPPPPSPAPTPVYCTRPPPPPPHSPPPPQFSPPPPEPYYYSSPPPPHSSPPPHSPPPPHSPPPPIYPYLSPPPPPTPVSSPPPTPVYSPPPPPPCIEPPPPPPCIEYSPPPPPPVVHYSSPPPPPVYYSSPPPPPVYYSSPPPPPPVHYSSPPPPEVHYHSPPPSPVHYSSPPPPPSAPCEESPPPAPVVHHSPPPPMVHHSPPPPVIHQSPPPPSPEYEGPLPPVIGVSYASPPPPPFY
B3: LRR-like receptor At4g18670 (receptor, UniProt Q9SN46 32-857)
chain: LTFNGDLSDNEVRLITQRQLLYFRDEFGDRGENVDVDPSLVFENPRLRNAYIALQAWKQAILSDPNNFTTNWIGSDVCSYTGVYCAPALDNRRIRTVAGIDLNHADIAGYLPQELGLLTDLALFHINSNRFCGTVPHRFNRLKLLFELDLSNNRFAGIFPTVVLQLPSLKFLDLRFNEFEGPVPRELFSKDLDAIFINHNRFRFELPDNLGDSPVSVIVVANNHFHGCIPTSLGDMRNLEEIIFMENGFNSCLPSQIGRLKNVTVFDFSFNELVGSLPASIGGMVSMEQLNVAHNRFSGKIPATICQLPRLENFTFSYNFFTGEPPVCLGLPGFDDRRNCLPARPAQRSPGQCAAFSSLPPVDCGSFGCGRSTRPPVVVPSPPTTPSPGGSPPSPSISPSPPITVPSPPTTPSPGGSPPSPSIVPSPPSTTPSPGSPPTSPTTPTPGGSPPSSPTTPTPGGSPPSSPTTPTPGGSPPSSPTTPSPGGSPPSPSISPSPPITVPSPPSTPTSPGSPPSPSSPTPSSPIPSPPTPSTPPTPISPGQNSPPIIPSPPFTGPSPPSSPSPPLPPVIPSPPIVGPTPSSPPPSTPTPVYSPPPPSTGYPPPPPFTGYSPPSPPPPPPPTFSPSPSIPPPPPQTYSPFPPPPPPPPQTYYPPQPSPSQPPQSPIYGTPPPSPIPYLPSPPQFASPPPPAPYYYSSPQPPPPPHYSLPPPTPTYHYISPPPPPTPIHSPPPQSHPPCIEYSPPPPPTVHYNPPPPPSPAHYSPPPSPPVYYYNSPPPPPAVHYSPPPPPVIHHSQPPPPPIYEGPLPPIPGISYASPPPPPFY
B4: LRR-like receptor At5g43470 (receptor, UniProt Q8W4J9 1-908)
chain: MAEAFVSFGLEKLWDLLSRESERLQGIDGQLDGLKRQLRSLQSLLKDADAKKHGSDRVRNFLEDVKDLVFDAEDIIESYVLNKLSGKGKGVKKHVRRLACFLTDRHKVASDIEGITKRISEVIGEMQSFGIQQIIDGGRSLSLQERQRVQREIRQTYPDSSESDLVGVEQSVKELVGHLVENDVHQVVSIAGMGGIGKTTLARQVFHHDLVRRHFDGFAWVCVSQQFTQKHVWQRILQELQPHDGDILQMDEYALQRKLFQLLEAGRYLVVLDDVWKKEDWDVIKAVFPRKRGWKMLLTSRNEGVGIHADPTCLTFRASILNPEESWKLCERIVFPRRDETEVRLDEEMEAMGKEMVTHCGGLPLAVKALGGLLANKHTVPEWKRVFDNIGSQIVGGSWLDDNSLNSVYRILSLSYEDLPTHLKHCFLNLAHFPEDSEISTYSLFYYWAAEGIYDGSTIEDSGEYYLEELVRRNLVIADDNYLSWQSKYCQMHDMMREVCLSKAKEENFLQIIIDPTCTSTINAQSPSRSRRLSIHSGKAFHILGHKNKTKVRSLIVPRFEEDYWIRSASVFHNLTLLRVLDLSWVKFEGGKLPCSIGGLIHLRYLSLYEAKVSHLPSTMRNLKLLLYLNLRVDTEEPIHVPNVLKEMIQLRYLSLPLKMDDKTKLELGDLVNLEYLYGFSTQHSSVTDLLRMTKLRYLAVSLSERCNFETLSSSLRELRNLETLNFLFSLETYMVDYMGEFVLDHFIHLKQLGLAVRMSKIPDQHQFPPHLVHLFLIYCGMEEDPMPILEKLLHLKSVRLARKAFLGSRMVCSKGGFPQLCVIEISKESELEEWIVEEGSMPCLRTLTIDDCKKLKELPDGLKYITSLKELKIEGMKREWKEKLVPGGEDYYKVQHIPDVQFINCDQ
B5: LRR-like receptor At4g19510 (receptor, UniProt F4JT80 1-1207)
chain: MAFASSSSSIVLSKCEFDVFVSFRGADTRHDFTSHLVKYLRGKGIDVFSDAKLRGGEYISLLFDRIEQSKMSIVVFSEDYANSWWCLEEVGKIMQRRKEFNHGVLPIFYKVSKSDVSNQTGSFEAVFQSPTKIFNGDEQKIEELKVALKTASNIRGFVYPENSSEPDFLDEIVKNTFRMLNELSPCVIPDDLPGIESRSKELEKLLMFDNDECVRVVGVLGMTGIGKTTVADIVYKQNFQRFDGYEFLEDIEDNSKRYGLPYLYQKLLHKLLDGENVDVRAQGRPENFLRNKKLFIVLDNVTEEKQIEYLIGKKNVYRQGSRIVIITRDKKLLQKNADATYVVPRLNDREAMELFCLQVFGNHYPTEEFVDLSNDFVCYAKGLPLALKLLGKGLLTHDINYWKKKLEFLQVNPDKELQKELKSSYKALDDDQKSVFLDIACFFRSEKADFVSSILKSDDIDAKDVMRELEEKCLVTISYDRIEMHDLLHAMGKEIGKEKSIRKAGERRRLWNHKDIRDILEHNTGTECVRGIFLNMSEVRRIKLFPAAFTMLSKLKFLKFHSSHCSQWCDNDHIFQCSKVPDHFPDELVYLHWQGYPYDCLPSDFDPKELVDLSLRYSHIKQLWEDEKNTESLRWVDLGQSKDLLNLSGLSRAKNLERLDLEGCTSLDLLGSVKQMNELIYLNLRDCTSLESLPKGFKIKSLKTLILSGCLKLKDFHIISESIESLHLEGTAIERVVEHIESLHSLILLNLKNCEKLKYLPNDLYKLKSLQELVLSGCSALESLPPIKEKMECLEILLMDGTSIKQTPEMSCLSNLKICSFCRPVIDDSTGLVVLPFSGNSFLSDLYLTNCNIDKLPDKFSSLRSLRCLCLSRNNIETLPESIEKLYSLLLLDLKHCCRLKSLPLLPSNLQYLDAHGCGSLENVSKPLTIPLVTERMHTTFIFTDCFKLNQAEKEDIVAQAQLKSQLLARTSRHHNHKGLLLDPLVAVCFPGHDIPSWFSHQKMGSLIETDLLPHWCNSKFIGASLCVVVTFKDHEGHHANRLSVRCKSKFKSQNGQFISFSFCLGGWNESCGSSCHEPRKLGSDHVFISYNNCNVPVFKWSEETNEGNRCHPTSASFEFYLTDETERKLECCEILRCGMNFLYARDENDRKFQGIRVTDTVERTSSEALVTIRGQSHSRIEERRYGRIRDEIMDMTGSSMIGGPES
B6: LRR-like receptor At4g19530 (receptor, UniProt O49471 1-1189)
chain: MATSSSVVSSVPQQHQVFLNFRGDELRNNFVSHLDKALRGKQINVFIDEAVEKGENLDNLFKEIEKSRIALAIISQKYTESKWCLNELVKMKELEGKLVTIPIFYNVEPATVRYQKEAFGAALTKTQENDSDGQMKKWKEALTYVSLLVGFPFNSKSKEKETTLIDKIVDAVLQKLSKISSEESTSGSVDQGRGEEVEEAKADKISGLNQRLKELEEKVAITGDKRDETRIVEVVGMPGIGKSTLLKAFYETWKTRFLSSALLQNISELVKAMGLGRLTGMLLKELLPDENIDEETYEPYKEKLLKNTVFIVLDGISDETHIQKLLKDHRKWAKKGSKIVIARRAVTRDLLHEDSMVRYTYFVPLLSHRDGLNHFCHYAFRHFAAHQNNKEAFMKESKEFVRYARGHPLILKLLGEELREKSLSYWEEKLKSLPKSLSQNIRDRVLQVTYDELSQVQKDAFLDIACFRSHDLVYVKSLLDSSGPAFSKATVTIDALKDMFMIYISDSRVEMHDLLYTFAMELGPEARDDDGRGRHRIWHHHNQDNKGRLNRLLKRPGGSTSVRSFFLDMYVMKTDVTLGTDYLKNMRNLRYLKFYSSHCPQECTPKENIHIPGELELPLEEVRCLHWLNFPKDELPQDFIPKNLVDLKLPYSKIRQIWREEKDAPKLRWVDLNHSSKLENLSGLSQALNLERLNLEGCTALKTLLLGPENMASLVFLNLKGCTGLESLPKINLRSLKTLILSNCSNLEEFWVISETLYTLYLDGTAIKTLPQDMVKLTSLVKLYMKDCEMLVKLPEEFDKLKVLQELVCSGCKRLSSLPDVMKNMQCLQILLLDGTAITKIPHISSLERLCLSRNEKISCLSNDIRLLSQLKWLDLKYCTKLVSIPELPTNLQCLDANGCESLTTVANPLATHLPTEQIHSTFIFTNCDKLDRTAKEVITTYAQRKCQMLSDALKRWNEGFVPEALFSTCFPGCEVPSWFCHEAVGSVLKLNLLPHWNENRFVGIALCAVVGSLPNCQEQTNSCSVTCTFNIASKDSKKGDPYKISFDRLVGRWNKHGNKLDKKGNKLKKTESDHVFICYTRCSNSIKCLQDQHSGTCTPTEAFLEFGVTDKESRLEVLKCGLRLVYASDEPQKTNSDMDLSLSSSDSTPTRNGSSNTTTSSGSVSTNTIREEDSNILHEAQSQNGRGL

Sequences of proteins named here, by UniProt entry; tags and fusion partners are left off.
UniProt P14713: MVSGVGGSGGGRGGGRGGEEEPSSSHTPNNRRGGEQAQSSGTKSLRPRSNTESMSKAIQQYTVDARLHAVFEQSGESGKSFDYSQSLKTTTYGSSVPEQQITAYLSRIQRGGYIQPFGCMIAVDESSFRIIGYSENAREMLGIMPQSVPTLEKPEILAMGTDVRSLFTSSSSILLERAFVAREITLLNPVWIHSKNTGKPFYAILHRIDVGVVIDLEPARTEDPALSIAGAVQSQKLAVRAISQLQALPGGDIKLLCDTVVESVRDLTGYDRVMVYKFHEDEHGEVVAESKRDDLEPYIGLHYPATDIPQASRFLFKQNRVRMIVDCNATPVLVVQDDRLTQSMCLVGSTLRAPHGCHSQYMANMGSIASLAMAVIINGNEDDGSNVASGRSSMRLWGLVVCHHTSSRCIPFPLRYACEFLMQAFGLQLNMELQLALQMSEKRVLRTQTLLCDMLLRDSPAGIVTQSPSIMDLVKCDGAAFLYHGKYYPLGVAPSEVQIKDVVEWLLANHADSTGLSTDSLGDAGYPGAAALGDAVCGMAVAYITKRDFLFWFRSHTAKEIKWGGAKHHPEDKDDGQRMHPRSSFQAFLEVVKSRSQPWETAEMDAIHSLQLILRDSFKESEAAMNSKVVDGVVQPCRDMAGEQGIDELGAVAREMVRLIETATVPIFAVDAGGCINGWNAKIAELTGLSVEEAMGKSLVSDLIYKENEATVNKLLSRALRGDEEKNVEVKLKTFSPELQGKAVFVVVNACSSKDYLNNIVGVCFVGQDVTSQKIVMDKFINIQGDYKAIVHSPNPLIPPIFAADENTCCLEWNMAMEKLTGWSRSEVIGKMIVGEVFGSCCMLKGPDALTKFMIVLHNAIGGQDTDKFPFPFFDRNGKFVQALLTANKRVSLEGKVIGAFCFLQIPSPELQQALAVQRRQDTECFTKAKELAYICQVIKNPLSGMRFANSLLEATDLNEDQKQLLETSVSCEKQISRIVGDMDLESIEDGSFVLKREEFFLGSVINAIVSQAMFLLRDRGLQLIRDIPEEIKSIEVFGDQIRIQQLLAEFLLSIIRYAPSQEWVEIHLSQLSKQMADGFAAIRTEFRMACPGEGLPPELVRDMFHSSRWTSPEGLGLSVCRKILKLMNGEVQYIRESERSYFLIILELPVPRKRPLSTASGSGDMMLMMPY

Biological target: phyB-miniTurbo (phyB CDS - miniTurbo-sCFP3A-3FLAG) (Arabidopsis thaliana) (UniProt P14713)
Assay: proximity labelling

binding, binds:
B1
B2
B3
B4
B5
B6

From paper doi:10.1101/2025.11.23.689998
